We go through 1 molecule from article PMC10353998 (2023).

The target in assay [1] is T1, eGFP-GGSG-Flag-RBM20-P633L (human) (UniProt Q5T481).
T1 sequence: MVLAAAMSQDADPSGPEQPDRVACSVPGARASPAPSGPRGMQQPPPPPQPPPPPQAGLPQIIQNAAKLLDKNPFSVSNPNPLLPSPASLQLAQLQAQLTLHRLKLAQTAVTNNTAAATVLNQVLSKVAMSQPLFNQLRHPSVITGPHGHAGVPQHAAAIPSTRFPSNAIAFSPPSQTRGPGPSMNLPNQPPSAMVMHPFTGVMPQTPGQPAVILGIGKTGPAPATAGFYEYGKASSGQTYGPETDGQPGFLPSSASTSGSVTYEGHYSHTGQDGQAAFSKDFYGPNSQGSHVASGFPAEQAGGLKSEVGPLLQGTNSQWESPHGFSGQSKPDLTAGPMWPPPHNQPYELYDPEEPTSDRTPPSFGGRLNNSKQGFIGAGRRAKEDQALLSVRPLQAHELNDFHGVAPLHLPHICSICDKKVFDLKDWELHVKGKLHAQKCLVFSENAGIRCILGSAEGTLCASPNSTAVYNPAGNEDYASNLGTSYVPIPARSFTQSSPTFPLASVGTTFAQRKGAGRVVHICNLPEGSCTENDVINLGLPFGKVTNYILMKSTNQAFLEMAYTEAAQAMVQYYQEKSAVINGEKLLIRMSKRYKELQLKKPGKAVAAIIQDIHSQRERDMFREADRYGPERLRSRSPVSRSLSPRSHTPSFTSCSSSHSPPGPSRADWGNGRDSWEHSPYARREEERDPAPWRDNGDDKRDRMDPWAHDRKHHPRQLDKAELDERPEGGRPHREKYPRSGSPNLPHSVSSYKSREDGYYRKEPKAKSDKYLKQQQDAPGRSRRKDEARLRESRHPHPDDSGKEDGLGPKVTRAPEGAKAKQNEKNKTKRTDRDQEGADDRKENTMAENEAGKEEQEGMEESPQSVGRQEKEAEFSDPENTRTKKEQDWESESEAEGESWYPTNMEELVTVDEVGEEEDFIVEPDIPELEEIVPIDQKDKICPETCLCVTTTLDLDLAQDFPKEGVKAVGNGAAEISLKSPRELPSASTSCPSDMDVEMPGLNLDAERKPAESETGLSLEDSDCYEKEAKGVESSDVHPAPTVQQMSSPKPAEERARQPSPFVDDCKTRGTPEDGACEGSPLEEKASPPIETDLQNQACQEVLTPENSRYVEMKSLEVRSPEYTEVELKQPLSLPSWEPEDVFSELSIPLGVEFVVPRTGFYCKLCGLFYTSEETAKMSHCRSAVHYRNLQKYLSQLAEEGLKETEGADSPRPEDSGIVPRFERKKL
Put plainly: co-IP; GFP-Trap magnetic particles, cytoplasmic fraction of HeLa expressing eGFP-RBM20 WT or mutants, 4 °C 3 h; washes with 150 mM NaCl, 0.1% NP-40; western blot for RBM20, TNPO3 and MOV10; no-bait control. Background: In western blotting, separated proteins are transferred to a membrane and probed.

The target of assay [2] is T2, eGFP-GGSG-Flag-RBM20-R634Q (human) (UniProt Q5T481).
T2 sequence: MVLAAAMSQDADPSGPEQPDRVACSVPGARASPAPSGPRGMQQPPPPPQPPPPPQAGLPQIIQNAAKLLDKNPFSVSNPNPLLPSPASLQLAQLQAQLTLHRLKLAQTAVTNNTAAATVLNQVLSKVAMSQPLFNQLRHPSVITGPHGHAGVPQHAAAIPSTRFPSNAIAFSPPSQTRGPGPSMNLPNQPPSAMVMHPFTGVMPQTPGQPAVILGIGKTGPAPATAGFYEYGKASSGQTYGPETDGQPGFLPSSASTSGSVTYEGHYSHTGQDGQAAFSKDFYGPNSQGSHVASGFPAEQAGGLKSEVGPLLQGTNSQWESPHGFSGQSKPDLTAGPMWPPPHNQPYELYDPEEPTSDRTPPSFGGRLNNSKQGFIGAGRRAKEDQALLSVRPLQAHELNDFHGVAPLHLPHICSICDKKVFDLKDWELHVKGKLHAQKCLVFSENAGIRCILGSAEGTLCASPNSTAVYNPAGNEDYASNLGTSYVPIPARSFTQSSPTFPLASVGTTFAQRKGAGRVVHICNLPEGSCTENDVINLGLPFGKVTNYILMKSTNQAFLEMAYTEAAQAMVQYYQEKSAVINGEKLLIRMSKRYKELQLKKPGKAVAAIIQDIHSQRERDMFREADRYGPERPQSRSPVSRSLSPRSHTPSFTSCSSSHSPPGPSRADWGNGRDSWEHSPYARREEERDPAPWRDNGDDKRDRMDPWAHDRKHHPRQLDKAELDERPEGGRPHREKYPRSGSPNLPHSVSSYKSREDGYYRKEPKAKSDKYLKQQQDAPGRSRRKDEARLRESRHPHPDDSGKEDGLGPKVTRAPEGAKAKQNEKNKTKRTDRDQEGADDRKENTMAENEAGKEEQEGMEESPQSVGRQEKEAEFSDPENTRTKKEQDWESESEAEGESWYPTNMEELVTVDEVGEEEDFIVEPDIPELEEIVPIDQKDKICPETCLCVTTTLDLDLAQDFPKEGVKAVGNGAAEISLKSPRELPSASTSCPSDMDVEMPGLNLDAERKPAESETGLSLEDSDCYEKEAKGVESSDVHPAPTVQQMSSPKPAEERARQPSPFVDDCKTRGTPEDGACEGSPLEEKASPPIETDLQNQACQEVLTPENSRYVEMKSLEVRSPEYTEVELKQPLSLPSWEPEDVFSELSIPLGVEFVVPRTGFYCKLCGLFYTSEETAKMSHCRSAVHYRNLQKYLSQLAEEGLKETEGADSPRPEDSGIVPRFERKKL
The description is as above.

These are yes or no findings as the source states them, for the method shown. In cells and extracts the contact can be indirect. Some binding calls cover weakened binding; strength is not graded here. Tags and fused reporters may be left off the sequences shown.

B1: MOV10 (protein, UniProt Q9HCE1 1-1003)
chain: MPSKFSCRQLREAGQCFESFLVVRGLDMETDRERLRTIYNRDFKISFGTPAPGFSSMLYGMKIANLAYVTKTRVRFFRLDRWADVRFPEKRRMKLGSDISKHHKSLLAKIFYDRAEYLHGKHGVDVEVQGPHEARDGQLLIRLDLNRKEVLTLRLRNGGTQSVTLTHLFPLCRTPQFAFYNEDQELPCPLGPGECYELHVHCKTSFVGYFPATVLWELLGPGESGSEGAGTFYIARFLAAVAHSPLAAQLKPMTPFKRTRITGNPVVTNRIEEGERPDRAKGYDLELSMALGTYYPPPRLRQLLPMLLQGTSIFTAPKEIAEIKAQLETALKWRNYEVKLRLLLHLEELQMEHDIRHYDLESVPMTWDPVDQNPRLLTLEVPGVTESRPSVLRGDHLFALLSSETHQEDPITYKGFVHKVELDRVKLSFSMSLLSRFVDGLTFKVNFTFNRQPLRVQHRALELTGRWLLWPMLFPVAPRDVPLLPSDVKLKLYDRSLESNPEQLQAMRHIVTGTTRPAPYIIFGPPGTGKTVTLVEAIKQVVKHLPKAHILACAPSNSGADLLCQRLRVHLPSSIYRLLAPSRDIRMVPEDIKPCCNWDAKKGEYVFPAKKKLQEYRVLITTLITAGRLVSAQFPIDHFTHIFIDEAGHCMEPESLVAIAGLMEVKETGDPGGQLVLAGDPRQLGPVLRSPLTQKHGLGYSLLERLLTYNSLYKKGPDGYDPQFITKLLRNYRSHPTILDIPNQLYYEGELQACADVVDRERFCRWAGLPRQGFPIIFHGVMGKDEREGNSPSFFNPEEAATVTSYLKLLLAPSSKKGKARLSPRSVGVISPYRKQVEKIRYCITKLDRELRGLDDIKDLKVGSVEEFQGQERSVILISTVRSSQSFVQLDLDFNLGFLKNPKRFNVAVTRAKALLIIVGNPLLLGHDPDWKVFLEFCKENGGYTGCPFPAKLDLQQGQNLLQGLSKLSPSTSGPHSHDYLPQEREGEGGLSLQVEPEWRNEL
As to B1, the binding entry in assay [1] and in assay [2] was “binds” in each case.
